According to the supplement of paper PMC12764529:
± gives the half width of the 95% confidence interval. The two proteases of the assay disagree for many of these sequences.

Experiments:
[1] = folding stability dG unfold from chymotrypsin proteolysis; higher = more stable
In short: (§1)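 Only designs with AlphaFold2 dimer inter-PAE above 15 were retained; each was a mini-protein under 80 residues with no cysteine, in a PA-tagged cDNA display construct. After digestion with trypsin and chymotrypsin and sequencing, K50 was inferred by Bayesian fitting of counts, and unfolding free energy was derived per protease or combined against a sequence-predicted unfolded-state K50 and a shared folded-state K50.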

[2] = folding stability dG unfold (combined trypsin and chymotrypsin); higher = more stable
In short: as §1

[3] = folding stability dG unfold from trypsin proteolysis; higher = more stable
Method: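 Folding stability of de novo designed mini-proteins (<80 aa, no Cys; designed by TrROS, TrMRF, ProteinMPNN and the joint model) was measured by cDNA display proteolysis with trypsin and chymotrypsin. Each protease was used at 11 concentrations in a threefold dilution series plus a no-protease condition. K50 was inferred by Bayesian fitting of sequencing counts, and dG unfold was derived against a sequence-predicted unfolded-state K50 (Tsuboyama et al. method). Sequences shown include variable-length N-terminal GS-type padding (SAGGSAGG...) inside a display construct carrying a PA tag. Rows were kept only if the AF2 dimer inter-PAE was >15, to exclude likely homo-oligomers.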

SAMDFPPGSTATIKVEVKNPDNTKTETYEIEVPVDPETGKAITLEDLKEALEKLGVNPENVKIVDIKVGSAG [r14_93_TrMRF]
folding stability dG unfold [1]: 2.25 ± 0.2 kcal/mol
folding stability dG unfold [2]: 2.72 ± 0.27 kcal/mol
folding stability dG unfold [3]: 3.18 ± 0.22 kcal/mol

SAGGSAGGMIVEKSVTLLEGNLAVETTTTVDPNNPDKVETEPSVTEIPTPVKVEPEPPVWGEPSSAGGSAGG [r6_230_JUSTAS]
folding stability dG unfold [1]: 1.04 ± 0.047 kcal/mol
folding stability dG unfold [2]: 0.606 ± 0.044 kcal/mol
folding stability dG unfold [3]: -1.26 ± 0.34 kcal/mol

SAGGSAGGSAGGPILKITLELSPEEIEELAKALGLKVKKVEKEKNKDGKLRVTIYIELKSAGGSAGGSAGGS [r10_999_TrROS_Hall]
folding stability dG unfold [1]: 3.24 ± 0.057 kcal/mol
folding stability dG unfold [2]: 2.81 ± 0.078 kcal/mol
folding stability dG unfold [3]: 2.12 ± 0.085 kcal/mol

SKLVEKLAKELNIKKVEVLPDGTVKFTTKDGYVIKITIEKVEVVKKPDGKVIKKYKIKIEIKPLPPPEELSA [r9_648_TrROS_Hall]
folding stability dG unfold [1]: 4.98 ± 0.1 kcal/mol
folding stability dG unfold [2]: 4.27 ± 0.48 kcal/mol
folding stability dG unfold [3]: 2.73 ± 0.14 kcal/mol

SAGEVELKIVLPKEEIEKILEALRKLAEEAGLEVEVEKIEKKEDGYYVITVTVKFKETEKEIKIEIIIPSAG [r5_41_TrROS_Hall]
folding stability dG unfold [1]: 2.55 ± 0.12 kcal/mol
folding stability dG unfold [2]: 2.69 ± 0.31 kcal/mol
folding stability dG unfold [3]: 3 ± 0.51 kcal/mol

SDIEIEMEPNPENNQWTMKIYLPKDGKPIVTIWMWPNGNVSVEKHKPNGKEKERTIPGPMPIEEALEDALSA [r9_346_TrROS]
folding stability dG unfold [1]: 2.01 ± 0.1 kcal/mol
folding stability dG unfold [2]: 1.28 ± 0.19 kcal/mol
folding stability dG unfold [3]: -0.276 ± 0.25 kcal/mol

SAGGMADEELANMSLEEVIAAVKEAGAKTVTVTFPDGSTLTIDLGDDGVVTVTLTTPPGEKETFEIPSAGGS [r8_51_TrMRF]
folding stability dG unfold [1]: 2.73 ± 0.088 kcal/mol
folding stability dG unfold [2]: 2.59 ± 0.11 kcal/mol
folding stability dG unfold [3]: 2.34 ± 0.17 kcal/mol

SAGGSAGGSAKKKKYLIKVKNEDGSEYTIEIDLSEDEIKELLEKKFGKKITKVEIYEKEDLKSAGGSAGGSA [r18_107_TrROS_Hall]
folding stability dG unfold [1]: 3.98 ± 0.071 kcal/mol
folding stability dG unfold [2]: 3.56 ± 0.12 kcal/mol
folding stability dG unfold [3]: 1.8 ± 0.06 kcal/mol

SAGGMSVEIQIEKNPETGLVLLTIKIGNETIVIPMTEEEAKEVIEEIKKKKPEPVKSPNGKISPVGESAGGS [r8_332_JUSTAS]
folding stability dG unfold [1]: 2.33 ± 0.098 kcal/mol
folding stability dG unfold [2]: 1.97 ± 0.11 kcal/mol
folding stability dG unfold [3]: -0.0384 ± 0.086 kcal/mol

SAGGSGMMLEEGVGVDPTTGELHRFTYLREPERPPVEVTVTTTTVVYTTPDGTTVTVTTTTTLEGGSAGGSA [r2_326_JUSTAS]
folding stability dG unfold [1]: 0.786 ± 0.27 kcal/mol
folding stability dG unfold [2]: 0.789 ± 0.13 kcal/mol
folding stability dG unfold [3]: 0.671 ± 0.047 kcal/mol

SAGGSAGGSAGGKKIEIEIVVKNEDGTYTVVRAEVELDENGKLKITKVEVKTVTLEELKKSAGGSAGGSAGG [r7_521_TrROS_Hall]
folding stability dG unfold [1]: 4.1 ± 0.082 kcal/mol
folding stability dG unfold [2]: 3.68 ± 0.077 kcal/mol
folding stability dG unfold [3]: 2.01 ± 0.12 kcal/mol

SAGGSAGGSAPSVTLEITVTVRTEDGYLFRVKARVEVDEDGNIHIEVEVELLPLPAAPPPPESAGGSAGGSA [r18_409_TrROS_Hall]
folding stability dG unfold [1]: 4 ± 0.18 kcal/mol
folding stability dG unfold [2]: 3.46 ± 0.27 kcal/mol
folding stability dG unfold [3]: 1.34 ± 0.16 kcal/mol

SAGGMRLVFVTETPEEAEEIARELAELFPDFELEAEVREEEVLVEVPETGEVKRRPVYVLVIELRPKSAGGS [r16_828_TrMRF]
folding stability dG unfold [1]: 4.42 ± 0.059 kcal/mol
folding stability dG unfold [2]: 4.41 ± 0.079 kcal/mol
folding stability dG unfold [3]: 4.29 ± 0.098 kcal/mol

SAGGSAGGSAGKKELTFKDKNGKTITVTLEDGEIKEIKIEKPPKPKVVKTEKKYVPKEELSAGGSAGGSAGG [r17_287_TrROS_Hall]
folding stability dG unfold [1]: 0.0761 ± 0.069 kcal/mol
folding stability dG unfold [2]: 0.135 ± 0.4 kcal/mol
folding stability dG unfold [3]: 0.0355 ± 0.16 kcal/mol

SAGKPNGKKKEKTFKIKLKVKPKEKEKIEKFLKNLKIKLPGNAEAEFKFKVDPETDEIYVEVKIKVGGSAGG [r19_45_TrMRF]
folding stability dG unfold [1]: 4.28 ± 0.18 kcal/mol
folding stability dG unfold [2]: 3.65 ± 0.35 kcal/mol
folding stability dG unfold [3]: 0.894 ± 0.1 kcal/mol

MKVVFTEEELPDAKVRKVFDPETGTITETVTYPSTSYTVTSTATITSFDPETGKVTITTTVSAPPEAGIPAS [r1_234_JUSTAS]
folding stability dG unfold [1]: 1.31 ± 0.057 kcal/mol
folding stability dG unfold [2]: 1.63 ± 0.13 kcal/mol
folding stability dG unfold [3]: 1.87 ± 0.05 kcal/mol

SAGGSAMKIEEIEKVELKKNENGELTAKIIIKDKKTNKYIEIEITVKPGMTLEEIKKLAEELLKKLSAGGSA [r15_181_TrROS_Hall]
folding stability dG unfold [1]: 1.96 ± 0.075 kcal/mol
folding stability dG unfold [2]: 2.73 ± 0.14 kcal/mol
folding stability dG unfold [3]: 3.42 ± 0.13 kcal/mol

SAGGSAGGSAGGSLKVEVSEEVVGDEKYYLVTATDPVTGEKTVVPMPKEDLEKALEALASAGGSAGGSAGGS [r10_271_JUSTAS]
folding stability dG unfold [1]: -0.587 ± 0.11 kcal/mol
folding stability dG unfold [2]: 0.716 ± 0.062 kcal/mol
folding stability dG unfold [3]: 1.46 ± 0.04 kcal/mol

SAGGSAGGSAMLVVTVPPSVEATVTITLSDGSVLTYTLPPDATLTIDSETFKNVKPVTVTRSSAGGSAGGSA [r18_210_JUSTAS]
folding stability dG unfold [1]: 1.8 ± 0.18 kcal/mol
folding stability dG unfold [2]: 0.938 ± 0.17 kcal/mol
folding stability dG unfold [3]: -0.206 ± 0.37 kcal/mol

SAGGSAGGSAGGKLTLDKNGNLTVTKEAKVTVETEETETETTTTTTTTTTTTTTLPEGLSAGGSAGGSAGGS [r10_383_TrROS_Hall]
folding stability dG unfold [1]: 1.23 ± 0.073 kcal/mol
folding stability dG unfold [2]: 0.829 ± 0.19 kcal/mol
folding stability dG unfold [3]: -1.2 ± 0.48 kcal/mol

SAGGKVKPGQKVKVKITLEYDEETGKVTIRVYSKDGKLIAEFEVSKEELKKLLEALKKAGVDEVEIYPSAGG [r13_765_TrROS_Hall]
folding stability dG unfold [1]: 3.65 ± 0.048 kcal/mol
folding stability dG unfold [2]: 3.21 ± 0.083 kcal/mol
folding stability dG unfold [3]: 1.57 ± 0.042 kcal/mol

SYAFMIEVEYPDNGQEHTIPIPPDTLTIEINFKGPHEFRVEISWFDNGDIREQEREVTIPPPPPPPEDNKSA [r9_1067_TrROS]
folding stability dG unfold [1]: 4.43 ± 0.2 kcal/mol
folding stability dG unfold [2]: 3.51 ± 0.24 kcal/mol
folding stability dG unfold [3]: 1.78 ± 0.22 kcal/mol

KYRTIMIPYKDMTPEQLRDFLQDLGLTWEDLEIEREGDYYTIKIPNVKITIMPPPPKPKVSPNDPEDAKEAS [r1_57_TrROS]
folding stability dG unfold [1]: 3.36 ± 0.095 kcal/mol
folding stability dG unfold [2]: 2.51 ± 0.23 kcal/mol
folding stability dG unfold [3]: 1.14 ± 0.065 kcal/mol

EPIIPDEKDKPLLLKVLSVEVDPEIYPLPGPKGPPVLKVKVKVKMKVLAYTENKPVEKEYTFTLTFYFPPKS [r1_112_TrMRF]
folding stability dG unfold [1]: 5.65 ± 0.37 kcal/mol
folding stability dG unfold [2]: 5.16 ± 0.45 kcal/mol
folding stability dG unfold [3]: 3.09 ± 0.27 kcal/mol

SAGGSAGGAELKPVGNDPETGKTAVILLKKPDPTGLVLALEGLSPEELKKLAEIPGYEAVAVLASAGGSAGG [r6_185_TrMRF]
folding stability dG unfold [1]: 0.213 ± 0.23 kcal/mol
folding stability dG unfold [2]: 0.787 ± 0.071 kcal/mol
folding stability dG unfold [3]: 0.996 ± 0.037 kcal/mol

SAGGSAGGSAKKKPKKIKKYEIEVEILVKDPKTNKYYKIKLKAEVVEYKGKLYLKIEAEIESAGGSAGGSAG [r3_409_TrROS_Hall]
folding stability dG unfold [1]: 5.15 ± 0.17 kcal/mol
folding stability dG unfold [2]: 5.13 ± 0.3 kcal/mol
folding stability dG unfold [3]: 2.92 ± 0.18 kcal/mol

SAGGSAGGSAGLPANPALQNQVVPVELKVEVEVEELPDGSVRLRLKVEFGDLTLEFYFAGPLSAGGSAGGSA [r18_335_TrMRF]
folding stability dG unfold [1]: 4.23 ± 0.066 kcal/mol
folding stability dG unfold [2]: 3.87 ± 0.089 kcal/mol
folding stability dG unfold [3]: 2.16 ± 0.11 kcal/mol

SAGGSAKKEVKVEIVSITYNPETGVIEIEIKADKPVDKIEITLPDGSKITFELLPDGKTIRMTIEPSAGGSA [r15_736_TrROS_Hall]
folding stability dG unfold [1]: 3.53 ± 0.17 kcal/mol
folding stability dG unfold [2]: 3.07 ± 0.24 kcal/mol
folding stability dG unfold [3]: 1.47 ± 0.14 kcal/mol

SAGGAPLPPSLRALAERLRAEGHEVTIVRHGDRYVLFVNGKTVETEEEVEKLKKVPGIKEIIVEPAPSAGGS [r16_275_JUSTAS]
folding stability dG unfold [1]: 3.17 ± 0.074 kcal/mol
folding stability dG unfold [2]: 2.58 ± 0.17 kcal/mol
folding stability dG unfold [3]: 0.45 ± 0.18 kcal/mol

SAGGSADKNKPKKKVEEKEFYVKIPFKSKEEALAYVEEIKKKFPGAKVEIVSLSPDGIAIIKITLKSAGGSA [r15_387_TrMRF]
folding stability dG unfold [1]: 3.82 ± 0.16 kcal/mol
folding stability dG unfold [2]: 3.53 ± 0.19 kcal/mol
folding stability dG unfold [3]: 1.65 ± 0.058 kcal/mol

SAGGGVGLLVVVVRLPPSVDPAAAVQAVADEIAEAFPDATVEVVAAAVLPGTGEVVAVFRVVGDTAASAGGS [r8_26_TrMRF]
folding stability dG unfold [1]: 3.72 ± 0.087 kcal/mol
folding stability dG unfold [2]: 3.27 ± 0.076 kcal/mol
folding stability dG unfold [3]: 1.58 ± 0.058 kcal/mol
